No constants are given. Whether binding was seen depends on the method and setting. Some results given as binding are weak or reduced against the parent protein; the word gives no strength.
Molecular target: neurotensin immobilised on the NT column
Test: ligand-affinity column; NTS1-7m applied to a neurotensin (NT) column; elution tried with high concentration (e.g. 1 M) NaCl

binding: binds
Substance: NTS1-7m (A86L, I260A, F342A, F358A), MBP and TrxA-H10 fusion (from UniProt P20789 43-424) (receptor)
